This continues a long series; more values of the same kind are listed elsewhere.
System: H. pylori 26695
Test: In vivo inhibition of HsrA: RNA-Seq transcriptomic analysis of exposed cells
Format: cell-based, Helicobacter pylori
Protocol: Bacterial growth from three blood agar plates of H. pylori ATCC 700392 (aka 26695) incubated for 48 h at 37 °C under microaerobic conditions was aseptically resuspended in BHI + FBS and adjusted to 10^7 CFU/mL. BHI broth cultures were incubated microaerobically at 37 °C for 24 h. […] At this time, bacterial growth was stopped by adding 1.5 mL ice-cold RNA stop solution (95% absolute ethanol, 5% acid-buffered phenol) and subsequently incubated on ice. Control samples were exposed to the same amount of DMSO instead of the inhibitor. Helicobacter cells from all samples were harvested by centrifugation (4000 rpm at 4 °C for 10 min), then the pellets were quickly frozen by immersion in liquid nitrogen and stored at −80 °C.
RNA-Seq analysis was performed by GENEWIZ (Azenta Life Sciences, Leipzig, Germany). Frozen cell pellets from two biological replicates of each treatment condition were properly submitted to GENEWIZ in dry ice. RNA-Seq libraries were prepared according to standard protocols via rRNA depletion, RNA fragmentation and random priming, reverse transcription, 5’-phosphorylation and dA-tailing of cDNAs, adaptor ligation, and PCR enrichment. Once the quality of each library was confirmed, they were sequenced on an Illumina NovaSeq 6000 (Illumina, San Diego, CA, USA) with 150-bp paired-ends. Raw sequence reads were filtered to remove possible adapter sequences and nucleotides with poor quality using Trimmomatic v.0.36 [105]. The trimmed reads were subsequently mapped to the H. pylori strain 26695 reference genome NC_000915.1 available on NCBI, by using the Bowtie2 aligner v.2.2.6 [106]. Unique gene hit counts were calculated by using featureCounts from the Subread package v.1.5.2. Only unique reads that fell within the gene regions were counted. Using DESeq2 [108], a comparison of the gene expression between the control and treated groups of samples was performed. The Wald test was used to generate p-values and log2 fold changes. Genes with an adjusted p-value < 0.05 and absolute log2 fold change >1 were considered as differentially expressed genes (DEGs) for each comparison. The RNA-Seq data generated in this study have been deposited in ArrayExpress with the accession number E-MTAB-14255.

## NC(=NOC(=O)Nc1ccc(Cl)cc1)c1csc([N+](=O)[O-])c1 [Ligand V, N′-{[(4-chloroanilino)carbonyl]}oxy-5-nitrothiophene-3-carboximidamide]
Gene HP1498, exposed to lethal concentration of V vs control
  log2 Fold Change: -1.343
Gene HP1502, exposed to lethal concentrations of V vs control
  log2 Fold Change: 0.636
Gene HP1503, exposed to lethal concentrations of V vs control
  log2 Fold Change: 0.639
Gene HP1506, exposed to lethal concentrations of V vs control
  log2 Fold Change: 0.739
Gene HP1507, exposed to lethal concentrations of V vs control
  log2 Fold Change: 0.657
Gene HP1508, exposed to lethal concentrations vs control
  log2 Fold Change: -0.031
Gene HP1509, exposed to lethal concentrations vs control
  log2 Fold Change: 0.053
Gene HP1511, exposed to lethal concentrations vs control
  log2 Fold Change: -0.819
Gene HP1516, exposed to lethal concentrations of V vs control
  log2 Fold Change: 0.660
Gene HP1517, exposed to lethal concentrations vs control
  log2 Fold Change: 1.065
Gene HP1523, exposed to lethal concentrations of V vs control
  log2 Fold Change: 0.993
Gene HP1524, exposed to lethal concentration of V vs control
  log2 Fold Change: -2.821
Gene HP1525, exposed to lethal concentrations vs control
  log2 Fold Change: -0.713
Gene HP1527, exposed to lethal concentrations of V vs control
  log2 Fold Change: 0.743
Gene HP1530, exposed to lethal concentration of V vs control
  log2 Fold Change: -0.933
Gene HP1531, exposed to lethal concentrations vs control
  log2 Fold Change: -0.859
Gene HP1532, exposed to lethal concentrations vs control
  log2 Fold Change: 0.041
Gene HP1534, exposed to lethal concentrations vs control
  log2 Fold Change: 0.066
Gene HP1535, exposed to lethal concentrations vs control
  log2 Fold Change: 0.128
Gene HP1541, exposed to lethal concentrations of V vs control
  log2 Fold Change: 0.721
Gene HP1542, exposed to lethal concentrations vs control
  log2 Fold Change: -0.764
Gene HP1543, exposed to lethal concentrations of V vs control
  log2 Fold Change: 0.617
Gene HP1544, exposed to lethal concentration of V vs control
  log2 Fold Change: -0.949
Gene HP1545, exposed to lethal concentration of V vs control
  log2 Fold Change: -1.535
Gene HP1548, exposed to lethal concentrations vs control
  log2 Fold Change: 0.090
Gene HP1553, exposed to lethal concentrations of V vs control
  log2 Fold Change: 0.791
Gene HP1560, exposed to lethal concentrations of V vs control
  log2 Fold Change: 0.975
Gene HP1561, exposed to lethal concentrations of V vs control
  log2 Fold Change: 0.716
Gene HP1563, exposed to lethal concentrations of V vs control
  log2 Fold Change: 0.564
Gene HP1565, exposed to lethal concentrations vs control
  log2 Fold Change: -0.029
Gene HP1566, exposed to lethal concentration of V vs control
  log2 Fold Change: -1.368
Gene HP1568, exposed to lethal concentrations vs control
  log2 Fold Change: -0.016
Gene HP1570, exposed to lethal concentrations vs control
  log2 Fold Change: -0.103
Gene HP1571, exposed to lethal concentrations vs control
  log2 Fold Change: -0.681
Gene HP1575, exposed to lethal concentrations vs control
  log2 Fold Change: -0.053
Gene HP1578, exposed to lethal concentration of V vs control
  log2 Fold Change: -1.307
Gene HP1579, exposed to lethal concentration of V vs control
  log2 Fold Change: -1.547
Gene HP1582, exposed to lethal concentrations of V vs control
  log2 Fold Change: 0.892
Gene HP1588, exposed to lethal concentrations vs control
  log2 Fold Change: 1.118
Gene HP1590, exposed to lethal concentration of V vs control
  log2 Fold Change: -1.429
Gene HPrrnA5S, exposed to lethal concentrations vs control
  log2 Fold Change: 2.552
Gene HPrrnA23S, exposed to lethal concentrations vs control
  log2 Fold Change: 3.014
Gene HPrrnB5S, exposed to lethal concentrations vs control
  log2 Fold Change: 2.026
Gene HPrrnB16S, exposed to lethal concentrations vs control
  log2 Fold Change: 3.934
Gene HPrrnB23S, exposed to lethal concentrations vs control
  log2 Fold Change: 2.968
Gene HPrrnC5S, exposed to lethal concentrations vs control
  log2 Fold Change: 2.584
Gene ackA, exposed to lethal concentrations vs control
  log2 Fold Change: 0.076
Gene acpP, exposed to lethal concentration of V vs control
  log2 Fold Change: -1.158
Gene alaS, exposed to lethal concentrations of V vs control
  log2 Fold Change: 1.000
Gene algC, exposed to lethal concentrations vs control
  log2 Fold Change: -0.743
Gene amiE, exposed to lethal concentrations vs control
  log2 Fold Change: 1.692
Gene amiF, exposed to lethal concentrations vs control
  log2 Fold Change: 1.404
Gene argS, exposed to lethal concentrations vs control
  log2 Fold Change: -0.097
Gene aroE, exposed to lethal concentrations vs control
  log2 Fold Change: -0.061
Gene aroK, exposed to lethal concentrations vs control
  log2 Fold Change: -0.086
Gene aspA, exposed to lethal concentrations vs control
  log2 Fold Change: 1.276
Gene aspS, exposed to lethal concentrations vs control
  log2 Fold Change: -0.073
Gene atpC, exposed to lethal concentrations vs control
  log2 Fold Change: 0.044
Gene carB, exposed to lethal concentrations vs control
  log2 Fold Change: 0.067
Gene clpP, exposed to lethal concentrations vs control
  log2 Fold Change: -0.759
Gene coaD, exposed to lethal concentration of V vs control
  log2 Fold Change: -0.928
Gene coaE, exposed to lethal concentrations vs control
  log2 Fold Change: 0.022
Gene dapA, exposed to lethal concentrations vs control
  log2 Fold Change: -0.116
Gene dapF, exposed to lethal concentrations vs control
  log2 Fold Change: 0.125
Gene dcd, exposed to lethal concentrations vs control
  log2 Fold Change: 0.064
Gene def, exposed to lethal concentrations vs control
  log2 Fold Change: -0.647
Gene dnaE, exposed to lethal concentrations vs control
  log2 Fold Change: 1.669
Gene dnaK, exposed to lethal concentrations vs control
  log2 Fold Change: 1.705
Gene engA, exposed to lethal concentrations vs control
  log2 Fold Change: 0.104
Gene engB, exposed to lethal concentrations vs control
  log2 Fold Change: -0.664
Gene eno, exposed to lethal concentrations of V vs control
  log2 Fold Change: 0.634
Gene era, exposed to lethal concentrations vs control
  log2 Fold Change: -0.691
Gene fabG, exposed to lethal concentration of V vs control
  log2 Fold Change: -1.077
Gene flgA, exposed to lethal concentrations vs control
  log2 Fold Change: -0.830
Gene flgB, exposed to lethal concentrations of V vs control
  log2 Fold Change: 0.618
Gene flgE, exposed to lethal concentrations of V vs control
  log2 Fold Change: 0.610
Gene flgG, exposed to lethal concentrations vs control
  log2 Fold Change: -0.750
Gene flgK, exposed to lethal concentrations of V vs control
  log2 Fold Change: 0.565
Gene flgL, exposed to lethal concentrations vs control
  log2 Fold Change: -0.083
Gene fliD, exposed to lethal concentrations vs control
  log2 Fold Change: 1.582
Gene fliF, exposed to lethal concentration of V vs control
  log2 Fold Change: -0.921
Gene fliH, exposed to lethal concentrations vs control
  log2 Fold Change: -0.699
Gene fliI, exposed to lethal concentrations of V vs control
  log2 Fold Change: 0.528
Gene fliL, exposed to lethal concentrations vs control
  log2 Fold Change: 0.078
Gene fliS, exposed to lethal concentrations of V vs control
  log2 Fold Change: 0.939
Gene fmt, exposed to lethal concentrations vs control
  log2 Fold Change: 0.084
Gene frdB, exposed to lethal concentrations of V vs control
  log2 Fold Change: 0.586
Gene fumC, exposed to lethal concentrations of V vs control
  log2 Fold Change: 0.878
Gene gatA, exposed to lethal concentrations vs control
  log2 Fold Change: 1.031
Gene gatB, exposed to lethal concentrations vs control
  log2 Fold Change: -0.066
Gene gatC, exposed to lethal concentration of V vs control
  log2 Fold Change: -0.931
Gene gidA, exposed to lethal concentrations of V vs control
  log2 Fold Change: 0.812
Gene gidB, exposed to lethal concentration of V vs control
  log2 Fold Change: -1.735
Gene glk, exposed to lethal concentrations vs control
  log2 Fold Change: 1.500
Gene glmU, exposed to lethal concentrations of V vs control
  log2 Fold Change: 0.554
Gene gltA, exposed to lethal concentrations of V vs control
  log2 Fold Change: 0.877
Gene glyQ, exposed to lethal concentrations of V vs control
  log2 Fold Change: 0.861
Gene glyS, exposed to lethal concentrations of V vs control
  log2 Fold Change: 0.969
Gene gpsA, exposed to lethal concentrations of V vs control
  log2 Fold Change: 0.711
Gene greA, exposed to lethal concentrations of V vs control
  log2 Fold Change: 1.007
Gene groEL, exposed to lethal concentrations vs control
  log2 Fold Change: 1.455
Gene hemA, exposed to lethal concentrations vs control
  log2 Fold Change: -0.784
Gene hemD, exposed to lethal concentration of V vs control
  log2 Fold Change: -1.159
Gene hemE, exposed to lethal concentrations vs control
  log2 Fold Change: -0.131
Gene hemH, exposed to lethal concentrations vs control
  log2 Fold Change: -0.866
Gene hisS, exposed to lethal concentrations of V vs control
  log2 Fold Change: 0.658
Gene hslU, exposed to lethal concentrations vs control
  log2 Fold Change: 0.132
Gene htpG, exposed to lethal concentrations vs control
  log2 Fold Change: 1.030
Gene ileS, exposed to lethal concentrations of V vs control
  log2 Fold Change: 0.652
Gene infA, exposed to lethal concentration of V vs control
  log2 Fold Change: -2.208
Gene infC, exposed to lethal concentration of V vs control
  log2 Fold Change: -1.016
Gene ispG, exposed to lethal concentrations of V vs control
  log2 Fold Change: 0.969
Gene ispH, exposed to lethal concentrations of V vs control
  log2 Fold Change: 0.520
Gene leuS, exposed to lethal concentrations of V vs control
  log2 Fold Change: 0.562
Gene ligA, exposed to lethal concentrations of V vs control
  log2 Fold Change: 0.908
Gene lpxC, exposed to lethal concentrations vs control
  log2 Fold Change: 1.015
Gene lpxD, exposed to lethal concentrations vs control
  log2 Fold Change: 0.035
Gene lspA, exposed to lethal concentrations vs control
  log2 Fold Change: 0.075
Gene lysS, exposed to lethal concentration of V vs control
  log2 Fold Change: -1.055
